First the molecules themselves.
T1: FLAG-tagged TMEM18 (UniProt Q3TUD9)
T1 sequence: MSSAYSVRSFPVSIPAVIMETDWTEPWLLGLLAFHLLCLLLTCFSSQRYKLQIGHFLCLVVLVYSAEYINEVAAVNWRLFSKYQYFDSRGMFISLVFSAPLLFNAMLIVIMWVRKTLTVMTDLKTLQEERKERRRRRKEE

B1: NDC1 (endogenous, HEK293) (protein, UniProt Q9BTX1 1-674)
chain: MATAVSRPCAGRSRDILWRVLGWRIVASIVWSVLFLPICTTVFIIFSRIDLFHPIQWLSDSFSDLYSSYVIFYFLLLSVVIIIISIFNVEFYAVVPSIPCSRLALIGKIIHPQQLMHSFIHAAMGMVMAWCAAVITQGQYSFLVVPCTGTNSFGSPAAQTCLNEYHLFFLLTGAFMGYSYSLLYFVNNMNYLPFPIIQQYKFLRFRRSLLLLVKHSCVESLFLVRNFCILYYFLGYIPKAWISTAMNLHIDEQVHRPLDTVSGLLNLSLLYHVWLCGVFLLTTWYVSWILFKIYATEAHVFPVQPPFAEGSDECLPKVLNSNPPPIIKYLALQDLMLLSQYSPSRRQEVFSLSQPGGHPHNWTAISRECLNLLNGMTQKLILYQEAAATNGRVSSSYPVEPKKLNSPEETAFQTPKSSQMPRPSVPPLVKTSLFSSKLSTPDVVSPFGTPFGSSVMNRMAGIFDVNTCYGSPQSPQLIRRGPRLWTSASDQQMTEFSNPSPSTSISAEGKTMRQPSVIYSWIQNKREQIKNFLSKRVLIMYFFSKHPEASIQAVFSDAQMHIWALEGLSHLVAASFTEDRFGVVQTTLPAILNTLLTLQEAVDKYFKLPHASSKPPRISGSLVDTSYKTLRFAFRASLKTAIYRITTTFGEHLNAVQASAEHQKRLQQFLEFKE
B2: AAAS (endogenous, HEK293) (protein, UniProt Q9NRG9 1-546)
chain: MCSLGLFPPPPPRGQVTLYEHNNELVTGSSYESPPPDFRGQWINLPVLQLTKDPLKTPGRLDHGTRTAFIHHREQVWKRCINIWRDVGLFGVLNEIANSEEEVFEWVKTASGWALALCRWASSLHGSLFPHLSLRSEDLIAEFAQVTNWSSCCLRVFAWHPHTNKFAVALLDDSVRVYNASSTIVPSLKHRLQRNVASLAWKPLSASVLAVACQSCILIWTLDPTSLSTRPSSGCAQVLSHPGHTPVTSLAWAPSGGRLLSASPVDAAIRVWDVSTETCVPLPWFRGGGVTNLLWSPDGSKILATTPSAVFRVWEAQMWTCERWPTLSGRCQTGCWSPDGSRLLFTVLGEPLIYSLSFPERCGEGKGCVGGAKSATIVADLSETTIQTPDGEERLGGEAHSMVWDPSGERLAVLMKGKPRVQDGKPVILLFRTRNSPVFELLPCGIIQGEPGAQPQLITFHPSFNKGALLSVGWSTGRIAHIPLYFVNAQFPRFSPVLGRAQEPPAGGGGSIHDLPLFTETSPTSAPWDPLPGPPPVLPHSPHSHL
B3: NUP35/53 (endogenous, HEK293) (protein, UniProt Q8NFH5 1-326)
chain: MAAFAVEPQGPALGSEPMMLGSPTSPKPGVNAQFLPGFLMGDLPAPVTPQPRSISGPSVGVMEMRSPLLAGGSPPQPVVPAHKDKSGAPPVRSIYDDISSPGLGSTPLTSRRQPNISVMQSPLVGVTSTPGTGQSMFSPASIGQPRKTTLSPAQLDPFYTQGDSLTSEDHLDDSWVTVFGFPQASASYILLQFAQYGNILKHVMSNTGNWMHIRYQSKLQARKALSKDGRIFGESIMIGVKPCIDKSVMESSDRCALSSPSLAFTPPIKTLGTPTQPGSTPRISTMRPLATAYKASTSDYQVISDRQTPKKDESLVSKAMEYMFGW

Results are given in words; binding and its absence hold for the method and conditions named. Binding seen in cells or lysates may run through a third protein. Here binding means that the protein was enriched with, or labelled near, the bait; the list need not be complete. Tags and fused reporters may be left off the sequences shown.

In the assay the target is T1, FLAG-tagged TMEM18. The experiment in a line: affinity purification with mass spectrometry.
In the case of B1, the binding entry was “binds”.

As for B2, the binding result was “binds”.

In the case of B3, the binding entry was “binds”.

Values taken from doi:10.1101/122853.
